Experimental data from US20250262210A1 (TRUSTEES OF COLUMBIA UNIVERSITY IN THE CITY OF NEW YORK, published 2025).
Numbering of substitutions follows the chain as printed.

T1: LZTR1 R810W-FLAG (human, UniProt Q8N653 1-840)
T1 construct: Stably expressed in U87 cells by lentivirus; also called LZTR1-FLAG-R810W; LZTR1 RW; not shown: FLAG tag
T1 sequence (looked up): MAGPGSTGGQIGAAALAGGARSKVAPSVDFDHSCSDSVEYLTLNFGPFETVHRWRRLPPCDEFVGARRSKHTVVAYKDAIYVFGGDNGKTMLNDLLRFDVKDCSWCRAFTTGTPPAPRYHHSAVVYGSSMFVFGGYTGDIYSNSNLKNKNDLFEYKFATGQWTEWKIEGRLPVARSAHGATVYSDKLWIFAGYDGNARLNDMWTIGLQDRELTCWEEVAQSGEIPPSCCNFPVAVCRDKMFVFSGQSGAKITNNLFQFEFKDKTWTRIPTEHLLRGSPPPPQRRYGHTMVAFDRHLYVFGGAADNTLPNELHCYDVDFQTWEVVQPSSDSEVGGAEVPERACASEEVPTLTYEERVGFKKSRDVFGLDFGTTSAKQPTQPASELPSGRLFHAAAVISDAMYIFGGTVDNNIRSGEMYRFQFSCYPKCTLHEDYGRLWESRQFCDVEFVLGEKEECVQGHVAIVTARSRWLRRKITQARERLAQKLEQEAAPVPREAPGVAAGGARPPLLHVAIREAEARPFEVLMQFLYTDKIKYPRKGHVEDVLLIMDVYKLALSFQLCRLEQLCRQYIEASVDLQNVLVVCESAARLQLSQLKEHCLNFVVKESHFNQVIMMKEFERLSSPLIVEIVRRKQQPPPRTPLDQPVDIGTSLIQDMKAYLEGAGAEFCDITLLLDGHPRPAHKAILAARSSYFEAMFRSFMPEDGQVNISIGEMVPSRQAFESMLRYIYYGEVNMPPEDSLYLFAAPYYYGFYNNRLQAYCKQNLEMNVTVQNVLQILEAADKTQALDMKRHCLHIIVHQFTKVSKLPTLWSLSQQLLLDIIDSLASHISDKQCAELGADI

T2: LZTR1-FLAG (human, UniProt Q8N653 1-840)
T2 construct: Expressed in HEK 293T, HeLa or U87 cells; used as cell lysate; also called LZTR1 wild type-FLAG; LZTR1 WT; not shown: FLAG tag at the C-terminus
T2 sequence (looked up): T1 sequence (looked up) with W810R

B1: ERGIC3 (other, human, UniProt Q9Y282 1-383, looked up)
chain: MEALGKLKQFDAYPKTLEDFRVKTCGGATVTIVSGLLMLLLFLSELQYYLTTEVHPELYVDKSRGDKLKINIDVLFPHMPCAYLSIDAMDVAGEQQLDVEHNLFKQRLDKDGIPVSSEAERHELGKVEVTVFDPDSLDPDRCESCYGAEAEDIKCCNTCEDVREAYRRRGWAFKNPDTIEQCRREGFSQKMQEQKNEGCQVYGFLEVNKVAGNFHFAPGKSFQQSHVHVHDLQSFGLDNINMTHYIQHLSFGEDYPGIVNPLDHTNVTAPQASMMFQYFVKVVPTVYMKVDGEVLRTNQFSVTRHEKVANGLLGDQGLPGVFVLYELSPMMVKLTEKHRSFTHFLTGVCAIIGGMFTVAGLIDSLIYHSARAIQKKIDLGKTT
B2: PHLDA1 (other, human, UniProt Q8WV24 1-401, looked up)
chain: MRRAPAAERLLELGFPPRCGRQEPPFPLGVTRGWGRWPIQKRREGARPVPFSERSQEDGRGPAARSSGTLWRIRTRLSLCRDPEPPPPLCLLRVSLLCALRAGGRGSRWGEDGARLLLLPPARAAGNGEAEPSGGPSYAGRMLESSGCKALKEGVLEKRSDGLLQLWKKKCCILTEEGLLLIPPKQLQHQQQQQQQQQQQQQQQPGQGPAEPSQPSGPAVASLEPPVKLKELHFSNMKTVDCVERKGKYMYFTVVMAEGKEIDFRCPQDQGWNAEITLQMVQYKNRQAILAVKSTRQKQQHLVQQQPPSQPQPQPQLQPQPQPQPQPQPQPQSQPQPQPQPKPQPQQLHPYPHPHPHPHSHPHSHPHPHPHPHPHQIPHPHPQPHSQPHGHRLLRSTSNSA

Assays:
LZTR1 R810W-FLAG = target: T1, LZTR1 R810W-FLAG; assay: IP/MS, LZTR1 R810W-FLAG, U87
Procedure: (§1) Lysates were immunoprecipitated with FLAG affinity matrix and eluted with FLAG peptide. […] Protein gel slices were excised and in-gel digestion performed as previously described (83), with minor modifications. Gel slices were washed with 1:1 A cetonitrile and 100 mM ammonium bicarbonate for 30 min then dehydrated with 100% acetonitrile for 10 min until shrunk. The excess acetonitrile was then removed and the slices dried in speed-vacuum at room temperature for 10 min. Gel slices were reduced with 5 mM DTT for 30 min at 56° C. in an air thermostat, cooled down to room temperature, and alkylated with 11 mM IAA for 30 min with no light. Gel slices were then washed with 100 mM of ammonium bicarbonate and 100% acetonitrile for 10 min each. Excess acetonitrile was removed and dried in a speed-vacuum for 10 min at room temperature and the gel slices were re-hydrated in a solution of 25 ng/μl trypsin in 50 mM ammonium bicarbonate for 30 min on ice and digested overnight at 37° C. in an air thermostat. Digested peptides were collected and further extracted from gel slices in extraction buffer (1:2 ratio by volume of 5% formic acid:acetonitrile) at high speed, shaking in an air thermostat. […] The following modifications were used for protein identification and quantification: oxidation of methionine (M), acetylation of the protein N-terminus, and deamination for asparagine or glutamine (NQ). […]

LZTR1-FLAG = target: T2, LZTR1-FLAG; assay: IP/MS, LZTR1 wild type-FLAG, U87
Procedure: as §1

binding result (LZTR1 R810W-FLAG) | binding result (LZTR1-FLAG) | Binder
binds | binds | B1
binds | binds | B2
